In the supplement of paper PMC4604168 (melanoma cell lines):
This is one part of the list. Repeats are few or missing, and single values can be far off.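 Imaging used 1,536-well plates; nuclei positive for cleaved PARP by antibody were divided by total DNA-stained nuclei to yield the apoptosis fraction. Doses for screening kept most cells viable, and cell lines differ markedly in resting and induced cleaved-PARP levels.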

Experiments:
Assay in all cases: cleaved PARP positive nuclei fraction relative to DMSO control; melanoma cells; higher = more apoptosis
Conditions in all cases: library dose: low library concentration; 72 h
[1] = tested on: 501Mel
[2] = tested on: A101D
[3] = tested on: A2058
[4] = tested on: C32
[5] = tested on: CBRC008 (line from a melanoma biopsy)
[6] = tested on: CBRC014 (line from a melanoma biopsy)
[7] = tested on: CBRC016 (line from a melanoma biopsy)
[8] = tested on: CBRC017 (line from a melanoma biopsy)
[9] = tested on: COLO792
[10] = tested on: COLO800
[11] = tested on: COLO829
[12] = tested on: G361
[13] = tested on: IPC-298
[14] = tested on: IST-MEL1
[15] = tested on: LB2518-MEL
[16] = tested on: LOXIMVI
[17] = tested on: A375
[18] = tested on: CBRC013 (line from a melanoma biopsy)
[19] = tested on: MEL-HO

| Structure (SMILES) | cleaved PARP positive nuclei fraction [1] | cleaved PARP positive nuclei fraction [2] | cleaved PARP positive nuclei fraction [3] | cleaved PARP positive nuclei fraction [4] | cleaved PARP positive nuclei fraction [5] | cleaved PARP positive nuclei fraction [6] | cleaved PARP positive nuclei fraction [7] | cleaved PARP positive nuclei fraction [8] | cleaved PARP positive nuclei fraction [9] | cleaved PARP positive nuclei fraction [10] | cleaved PARP positive nuclei fraction [11] | cleaved PARP positive nuclei fraction [12] | cleaved PARP positive nuclei fraction [13] | cleaved PARP positive nuclei fraction [14] | cleaved PARP positive nuclei fraction [15] | cleaved PARP positive nuclei fraction [16] | cleaved PARP positive nuclei fraction [17] | cleaved PARP positive nuclei fraction [18] | cleaved PARP positive nuclei fraction [19] |
| --- | --- | --- | --- | --- | --- | --- | --- | --- | --- | --- | --- | --- | --- | --- | --- | --- | --- | --- | --- |
| OCc1c[nH]c2ccccc12 [Indole-3-carbinol] + CCCCCCCCCCCC1=C(O)C(=O)C=C(O)C1=O [Embelin] (first compound 0.8 µM, partner dose 1.2 µM) | 62.3% | 16.8% | 103% | 79.4% | 472% | 86.2% | 29.7% | 105% | 217% | 97.4% | 92.9% | 123% | 150% | 68.6% | 66% | 427% |  |  |  |
| C=CCNC1=C2C[C@@H](C)C[C@H](OC)[C@H](O)[C@@H](C)/C=C(\C)[C@H](OC(N)=O)[C@@H](OC)/C=C\C=C(/C)C(=O)NC(=CC1=O)C2=O [Tanespimycin] + N#Cc1c(O)c2c(-c3ccc(-c4ccccc4O)cc3)csc2[nH]c1=O [A769662] (first compound 0.002 µM, partner dose 2 µM) | 70.5% | 24.2% | 54.7% | 466% | 295% | 90.9% | 25.7% | 73.5% | 40.7% | 126% | 121% | 93.8% | 267% | 133% | 56.3% | 95.7% |  |  |  |
| Clc1ccc(Nc2nnc(Cc3ccncc3)c3ccccc23)cc1 [vatalanib] + Oc1nc(-c2ccc(C(F)(F)F)cc2)nc2c1CSCC2 [XAV939] (first compound 2 µM, partner dose 2 µM) | 80.9% | 113% | 62.3% | 153% | 78.7% | 92.2% | 49.2% | 86.6% | 139% | 95.3% | 102% | 113% | 41.3% | 150% | 181% | 24.7% |  |  |  |
| Clc1ccc(Nc2nnc(Cc3ccncc3)c3ccccc23)cc1 [vatalanib] + Cn1cc(/C=C2\C(=O)Nc3cccnc32)c2ccccc21 [GW441756] (first compound 2 µM, partner dose 0.4 µM) | 95.2% | 149% | 51.4% | 66.8% | 163% | 196% | 115% | 102% | 181% | 72.3% | 84.6% | 209% | 45.3% | 122% | 213% | 95.1% |  |  |  |
| Clc1ccc(Nc2nnc(Cc3ccncc3)c3ccccc23)cc1 [vatalanib] + CCCCCCCCCCCC1=C(O)C(=O)C=C(O)C1=O [Embelin] (first compound 2 µM, partner dose 1.2 µM) | 78.2% | 62.8% | 70.7% | 44.1% | 93.4% | 119% | 62.5% | 94.6% | 51.6% | 128% | 125% | 69.4% | 83.2% | 140% | 70.2% | 129% |  |  |  |
| OCc1c[nH]c2ccccc12 [Indole-3-carbinol] + Cc1cc([N+](=O)[O-])ccc1NS(=O)(=O)c1cc(Cl)ccc1Cl [FH535] (first compound 0.8 µM, partner dose 1 µM) | 76.7% | 55.9% | 162% | 44.8% | 859% | 127% | 1150% | 1250% | 206% | 33.1% | 60.5% | 119% | 102% | 214% | 67.3% | 52.1% |  |  |  |
| OCc1c[nH]c2ccccc12 [Indole-3-carbinol] + COc1ccc(-c2ccc3c(N4CCOCC4)nc(N4C[C@@H](C)O[C@@H](C)C4)nc3n2)cc1CO [KU0063794] (first compound 0.8 µM, partner dose 0.02 µM) | 159% | 33.1% | 79.6% | 537% | 81.2% | 97.6% | 116% | 76.3% | 153% | 67.4% | 149% | 144% | 94.8% | 171% | 84.4% | 147% |  |  |  |
| CC(=O)c1c(C)c2cnc(Nc3ccc(N4CCNCC4)cn3)nc2n(C2CCCC2)c1=O [palbociclib] + O=C1NC(=O)/C(=C/c2ccc(-c3ccc(F)cc3O)o2)S1 [AS252424] (first compound 0.04 µM, partner dose 1 µM) | 98.1% | 39.7% | 231% | 136% | 94.6% | 126% | 39.9% | 127% | 111% | 39.5% | 156% | 148% | 160% | 302% | 44% | 147% |  |  |  |
| O=C(CCCCCCC(=O)Nc1ccccc1)NO [vorinostat] + OCCn1cc(-c2cnc3nnn(Cc4ccc5ncccc5c4)c3n2)cn1 [PF04217903] (first compound 0.08 µM, partner dose 1 µM) |  | 168% | 210% | 40.6% | 40.6% | 98.6% | 80.3% | 133% | 107% | 66.8% | 153% | 115% | 48.5% | 193% |  | 341% | 103% | 65.8% | 118% |
| Clc1ccc(Nc2nnc(Cc3ccncc3)c3ccccc23)cc1 [vatalanib] + O=C(Nc1ccccc1)c1cc([N+](=O)[O-])ccc1Cl [GW9662] (first compound 2 µM, partner dose 2 µM) | 195% | 30.6% | 63.9% | 77.6% | 82.1% | 141% | 112% | 110% | 70.7% | 49.7% | 193% | 156% | 46.1% | 92.2% | 111% | 155% |  |  |  |
| Clc1ccc(Nc2nnc(Cc3ccncc3)c3ccccc23)cc1 [vatalanib] + O=C(O)C(=O)Nc1sc2c(c1C(=O)O)CCNC2 [TCS401] (first compound 2 µM, partner dose 1.66667 µM) | 95.1% | 36.8% | 224% | 119% | 81.6% | 92.6% | 73.9% | 81.9% | 63.2% | 48.8% | 99.7% | 120% | 81.1% | 28.6% | 76.3% | 130% |  |  |  |
| CC(=O)c1c(C)c2cnc(Nc3ccc(N4CCNCC4)cn3)nc2n(C2CCCC2)c1=O [palbociclib] + Oc1cc(-c2nc(-c3ccccc3)[nH]c2-c2ccncc2)ccc1Cl [L779450] (first compound 0.04 µM, partner dose 0.2 µM) | 44.5% | 17.2% | 37% | 135% | 46.7% | 132% | 33.6% | 88.3% | 100% | 109% | 68.9% | 106% | 374% | 112% | 118% | 196% |  |  |  |
| CC(=O)c1c(C)c2cnc(Nc3ccc(N4CCNCC4)cn3)nc2n(C2CCCC2)c1=O [palbociclib] + Cn1cc(/C=C2\C(=O)Nc3cccnc32)c2ccccc21 [GW441756] (first compound 0.04 µM, partner dose 0.4 µM) | 60% | 33.9% | 69.6% | 151% | 160% | 131% | 76.6% | 160% | 163% | 133% | 64.1% | 93% | 208% | 53.5% | 174% | 466% |  |  |  |
| OCc1c[nH]c2ccccc12 [Indole-3-carbinol] + N#Cc1c(O)c2c(-c3ccc(-c4ccccc4O)cc3)csc2[nH]c1=O [A769662] (first compound 0.8 µM, partner dose 2 µM) | 76.3% | 12.8% | 69.1% | 34.5% | 60.7% | 88.1% | 79% | 82.1% | 127% | 122% | 244% | 96% | 89.6% | 136% | 69.5% | 117% |  |  |  |
| C=CCNC1=C2C[C@@H](C)C[C@H](OC)[C@H](O)[C@@H](C)/C=C(\C)[C@H](OC(N)=O)[C@@H](OC)/C=C\C=C(/C)C(=O)NC(=CC1=O)C2=O [Tanespimycin] + CCc1ccc(CCOc2ccc(CC3SC(=O)NC3=O)cc2)nc1 [pioglitazone] (first compound 0.002 µM, partner dose 2 µM) | 150% | 8.33% | 143% | 163% | 270% | 95.7% | 196% | 71.4% | 160% | 94.1% | 37.6% | 119% | 36.5% | 122% | 33.8% | 133% |  |  |  |
| CC(=O)c1c(C)c2cnc(Nc3ccc(N4CCNCC4)cn3)nc2n(C2CCCC2)c1=O [palbociclib] + COc1cc(N2CCC(N3CCN(C)CC3)CC2)ccc1Nc1ncc(Cl)c(Nc2ccccc2S(=O)(=O)C(C)C)n1 [NVP-TAE684] (first compound 0.04 µM, partner dose 0.08 µM) | 212% | 36.2% | 66.9% | 147% | 73.1% | 223% | 2320% | 117% | 172% | 42.1% | 144% | 58% | 230% | 52% | 92% | 74.8% |  |  |  |
| C=CCNC1=C2C[C@@H](C)C[C@H](OC)[C@H](O)[C@@H](C)/C=C(\C)[C@H](OC(N)=O)[C@@H](OC)/C=C\C=C(/C)C(=O)NC(=CC1=O)C2=O [Tanespimycin] + CCCCCCCCCCCC1=C(O)C(=O)C=C(O)C1=O [Embelin] (first compound 0.002 µM, partner dose 1.2 µM) | 139% | 27.3% | 30.2% | 40.1% | 27.5% | 90% | 68.2% | 106% | 88.7% | 30.7% | 80.4% | 57.2% | 130% | 154% | 69.9% | 60.6% |  |  |  |
| OCc1c[nH]c2ccccc12 [Indole-3-carbinol] + COc1cc2ncnc(Nc3ccc(Oc4ccccc4)cc3)c2cc1OC [SrcI1] (first compound 0.8 µM, partner dose 2 µM) | 98.3% | 9.82% | 116% | 102% | 110% | 79.3% | 110% | 160% | 85.9% | 69% | 95% | 35.4% | 48% | 101% | 112% | 90.5% |  |  |  |

A section taken from the entries so far, for reference:

| Structure (SMILES) | cleaved PARP positive nuclei fraction [1] | cleaved PARP positive nuclei fraction [2] | cleaved PARP positive nuclei fraction [3] | cleaved PARP positive nuclei fraction [4] | cleaved PARP positive nuclei fraction [5] | cleaved PARP positive nuclei fraction [6] | cleaved PARP positive nuclei fraction [7] | cleaved PARP positive nuclei fraction [8] | cleaved PARP positive nuclei fraction [9] | cleaved PARP positive nuclei fraction [10] | cleaved PARP positive nuclei fraction [11] | cleaved PARP positive nuclei fraction [12] | cleaved PARP positive nuclei fraction [13] | cleaved PARP positive nuclei fraction [14] | cleaved PARP positive nuclei fraction [15] | cleaved PARP positive nuclei fraction [16] | cleaved PARP positive nuclei fraction [17] | cleaved PARP positive nuclei fraction [18] | cleaved PARP positive nuclei fraction [19] |
| --- | --- | --- | --- | --- | --- | --- | --- | --- | --- | --- | --- | --- | --- | --- | --- | --- | --- | --- | --- |
| OCc1c[nH]c2ccccc12 [Indole-3-carbinol] + N#Cc1c(O)c2c(-c3ccc(-c4ccccc4O)cc3)csc2[nH]c1=O [A769662] (first compound 0.8 µM, partner dose 2 µM) | 76.3% | 12.8% | 69.1% | 34.5% | 60.7% | 88.1% | 79% | 82.1% | 127% | 122% | 244% | 96% | 89.6% | 136% | 69.5% | 117% |  |  |  |
| C=CCNC1=C2C[C@@H](C)C[C@H](OC)[C@H](O)[C@@H](C)/C=C(\C)[C@H](OC(N)=O)[C@@H](OC)/C=C\C=C(/C)C(=O)NC(=CC1=O)C2=O [Tanespimycin] + CCc1ccc(CCOc2ccc(CC3SC(=O)NC3=O)cc2)nc1 [pioglitazone] (first compound 0.002 µM, partner dose 2 µM) | 150% | 8.33% | 143% | 163% | 270% | 95.7% | 196% | 71.4% | 160% | 94.1% | 37.6% | 119% | 36.5% | 122% | 33.8% | 133% |  |  |  |
